Results as given in article doi:10.1101/2021.12.15.472744.
These are yes or no findings as the source states them, for the method shown. For part of these data: In cells and extracts the contact can be indirect. Some entries that bind do so weakly or less than the wild type. Where a sequence is shown, tags or fusion partners need not be part of it. Blank lines part the entries; values can stand above or below the binder they belong to.

Key:
[1] = biological target: T1, VN-tagged Spc72 (S. cerevisiae) (UniProt P39723); assay: split reporter
T1 sequence: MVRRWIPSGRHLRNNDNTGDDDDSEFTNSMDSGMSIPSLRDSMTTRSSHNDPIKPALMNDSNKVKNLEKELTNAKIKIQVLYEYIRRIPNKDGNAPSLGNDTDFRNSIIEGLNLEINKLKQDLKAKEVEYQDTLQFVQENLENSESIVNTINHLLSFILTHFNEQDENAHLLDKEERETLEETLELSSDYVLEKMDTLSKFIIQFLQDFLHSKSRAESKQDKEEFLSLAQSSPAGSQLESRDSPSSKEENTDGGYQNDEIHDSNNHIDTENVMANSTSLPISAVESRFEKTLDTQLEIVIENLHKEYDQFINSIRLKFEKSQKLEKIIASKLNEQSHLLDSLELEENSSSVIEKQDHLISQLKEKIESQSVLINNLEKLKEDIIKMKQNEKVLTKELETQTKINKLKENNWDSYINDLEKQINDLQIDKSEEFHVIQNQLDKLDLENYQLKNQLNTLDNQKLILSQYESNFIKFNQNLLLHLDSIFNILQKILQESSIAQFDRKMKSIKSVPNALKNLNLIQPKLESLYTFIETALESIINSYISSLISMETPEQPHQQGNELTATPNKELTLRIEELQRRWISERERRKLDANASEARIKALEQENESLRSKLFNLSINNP

[2] = biological target: T2, Spc72 (yeast two-hybrid fusion) (S. cerevisiae) (UniProt P39723); assay: two-hybrid
T2 sequence: T1 sequence

[3] = biological target: T3, Cnm67 (yeast two-hybrid fusion) (S. cerevisiae) (UniProt P53865); assay: two-hybrid
T3 sequence: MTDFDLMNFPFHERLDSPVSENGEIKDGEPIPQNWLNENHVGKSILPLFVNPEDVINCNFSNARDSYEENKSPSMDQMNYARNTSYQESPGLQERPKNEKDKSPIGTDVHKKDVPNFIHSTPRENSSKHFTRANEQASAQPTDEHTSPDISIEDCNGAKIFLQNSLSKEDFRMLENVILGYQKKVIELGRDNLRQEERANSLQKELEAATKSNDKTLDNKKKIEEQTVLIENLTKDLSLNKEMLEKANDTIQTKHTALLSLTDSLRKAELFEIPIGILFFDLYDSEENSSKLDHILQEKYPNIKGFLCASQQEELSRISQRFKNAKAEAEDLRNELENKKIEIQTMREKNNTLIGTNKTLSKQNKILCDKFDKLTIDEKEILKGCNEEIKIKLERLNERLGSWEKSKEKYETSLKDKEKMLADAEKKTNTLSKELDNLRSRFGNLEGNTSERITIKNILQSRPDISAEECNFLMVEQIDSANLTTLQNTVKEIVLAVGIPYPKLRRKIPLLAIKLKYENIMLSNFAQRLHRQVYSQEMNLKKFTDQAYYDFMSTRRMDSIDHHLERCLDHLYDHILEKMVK

binding [1]: binds
B1: VC-tagged Atg11 (protein, UniProt Q12527 1-1178)
chain: MADADEYSTAPTQQEITPLQTTATIINAISGECITTNVDFFVSLDKFKQFIARKWKIPPDQLLILLPYGNKLKPSMFKELLINRSFTLNDFYVYDRRLFSLVSKPTPTNLLTSKDSNPMNSPNSNDLTETLEYLIKNSHISQYQGSDTIMIKPMPSPLEDADVDLSRLNYHSVTSLLTTNLGWLSALEIDVHYFKSLIPDIIAHIKRIFDGLTVCSQYLKLYCFDVESLYNSNVQFLNQLVDNGMTSKWEKCFNDTLSKLTALEGDSLQKFINIESLLENEKSVKILNHSINGKLNKIKREIDENASFRDIITVNIDRLRQMFTPNESKFELEDQMAESFEVLVSEMRTRSRNVLDKEEEEFNSQEFLKSMNVMLEKDKKESVKTLFTISQALYSQIGELIDLKKSLQKHAVAILGNIAFTQMEILGIKRLLLNECNKDLELYKKYEVEFAQVEDLPLIYGLYLIEKYRRLSWFQQILSFISNFNQDLELFKQNELRTRNKWVKNFGSIATVFCEDLLSSSDFKRLNEYHSHTSPPNEDEEDENENSIANYRQDLVKVSQAIDNYMTQIKETDVSEPIIDLLSKTLFETKRFHIIYSNFKNNNNNSSNGNSISPEGSIALKSDDVVKGYKTRIKKLESLLHEFQYSDIGHWPQGVLNTHLKPFRGSATSINKKKFLGASVLLEPANISEVNIDSVSQANNHQIQELESNVDDLLHQLQLLKEENNRKSMQISEMGKKISDLEVEKTAYRETLTNLNQELARLTNEEQSHRTEIFTLNASFKKQLNDIISQDNEKIEKLTGDYDDVSKSRERLQMDLDESNKKHEQEVNLLKADIERLGKQIVTSEKSYAETNSSSMEKGEKFETIPLAEDPGRENQISAYTQTLQDRIFDIISTNIFILENIGLLLTFDNNNNIQIRRVKGLKKGTAQSNILDESTQMLDAHDNSLIKSPVFQKLKDEYELIKSVANGSEKDTQQSIFLGNITQLYDNKLYEVAVIRRFKDIETLAKKLTKENKIKRTLLERFQREKVTLRNFQIGDLALFLPTRENVNSVGSMSSSTSSLSSSFSSVDLSTPPPLDAMSIQSSPSVIHSNVINQASISGRDKNKLMRPWAAFTAFEESTRYFLKDEKGLTKGKEWFVGRIVTLEHFVADSPSNNPFRLPKGSVWFQVTAVVVSYQGV

binding [2]: binds
binding [3]: no binding
B2: Atg11 (yeast two-hybrid fusion) (protein, UniProt Q12527 1-1178)
chain: B1 chain
